We go through 27 compounds from the supplement of paper PMC8858631.

Structures can show the parent of a compound that is named as a salt. This is one part of the list. No stated cut-off is given here; in the data, active = 0.5 or less and inactive = the rest. Many values rest on one well or one pass, so single values are uncertain.

This assay has as its system SK-MEL-28. Nature of the assay: EEF2K protein level normalised to actin (western blot) after treatment (ratio (EEF2K/Actin)); higher = more EEF2K protein remaining (less EEF2K suppression). The following applies: 5 µM; 24 h.
`CC(C)Cn1cnc2c(N)nc3ccccc3c21` [Imiquimod]: the “EEF2K protein level normalised to actin” value was inactive: 1.7.

On to `CN1CC[C@@H](NC(=O)Nc2ccc(C#N)cc2)C[C@@H]1c1nc2ccccc2[nH]1`, for which the “EEF2K protein level normalised to actin” value is inactive: 1.54.

In the case of `CN1C2=CC(=O)/C(=N\NC(N)=O)C=C2CC1S(=O)(=O)O` (configuration not stated) [Carbazochrome sodium sulfonate (AC-17)], the “EEF2K protein level normalised to actin” value was active: 0.4.

For `CN(C)CCN1C(=O)c2cccc3cc(N)cc(c23)C1=O` [Amonafide], the “EEF2K protein level normalised to actin” value is inactive: 0.78.

For `Nc1nc(F)nc2c1ncn2[C@@H]1O[C@H](CO)[C@@H](O)[C@@H]1O` [Fludarabine], the “EEF2K protein level normalised to actin” value is active: 0.15.

Take `Cc1ccc(Nc2nccc(N(C)c3ccc4c(C)n(C)nc4c3)n2)cc1S(N)(=O)=O` [Pazopanib]: the “EEF2K protein level normalised to actin” value was inactive: 1.03.

Take `CONC(=O)Nc1ccc(-c2sc3c(c2CN(C)C)c(=O)n(-c2ccc(OC)nn2)c(=O)n3Cc2c(F)cccc2F)cc1` [Relugolix]: the “EEF2K protein level normalised to actin” value was inactive: 0.6.

Regarding `CCN1CCN(Cc2ccc(Nc3ncc(F)c(-c4cc(F)c5nc(C)n(C(C)C)c5c4)n3)nc2)CC1`, the “EEF2K protein level normalised to actin” value was inactive: 2.99.

On to `CN1CCN(c2ccc(C(=O)Nc3n[nH]c4ccc(Cc5cc(F)cc(F)c5)cc34)c(NC3CCOCC3)c2)CC1` [Entrectinib (RXDX-101)], for which the “EEF2K protein level normalised to actin” value is inactive: 3.16.

With `CC1(C)CCC(CN2CCN(c3ccc(C(=O)NS(=O)(=O)c4ccc(NCC5CCOCC5)c([N+](=O)[O-])c4)c(Oc4cnc5[nH]ccc5c4)c3)CC2)=C(c2ccc(Cl)cc2)C1` [Venetoclax (ABT-199, GDC-0199)], the “EEF2K protein level normalised to actin” value was inactive: 1.

With `COc1cc2nccc(Oc3ccc(NC(=O)NC4CC4)c(Cl)c3)c2cc1C(N)=O` [lenvatinib Mesylate], the “EEF2K protein level normalised to actin” value was inactive: 0.53.

For the compound `COc1ccc2[nH]c([S@@+]([O-])Cc3ncc(C)c(OC)c3C)nc2c1` [Esomeprazole sodium], the “EEF2K protein level normalised to actin” value was inactive: 1.67.

As to `COc1cc2c(Oc3ccc4[nH]c(C)cc4c3F)ccnc2cc1OCC1(N)CC1` [Anlotinib (AL3818) dihydrochloride], the “EEF2K protein level normalised to actin” value is inactive: 0.51.

For the compound `C[C@H](Oc1cc(-c2cnn(C3CCNCC3)c2)cnc1N)c1c(Cl)ccc(F)c1Cl` [(S)-crizotinib], the “EEF2K protein level normalised to actin” value is inactive: 2.89.

In the case of `COc1cc2nccc(Oc3ccc(NC(=O)C4(C(=O)Nc5ccc(F)cc5)CC4)cc3)c2cc1OC` [Cabozantinib malate (XL184)], the “EEF2K protein level normalised to actin” value was inactive: 2.3.

On to `Nc1n[n+]([O-])c2ccccc2[n+]1[O-]` [Tirapazamine], for which the “EEF2K protein level normalised to actin” value was inactive: 2.22.

As to `COC(=O)C[C@](O)(CCCC(C)(C)O)C(=O)O[C@@H]1C(OC)=C[C@]23CCCN2CCc2cc4c(cc2[C@H]13)OCO4` [Homoharringtonine], the “EEF2K protein level normalised to actin” value was inactive: 4.31.

Regarding `CC1Oc2cc(cnc2N)-c2c(nn(C)c2C#N)CN(C)C(=O)c2ccc(F)cc21` (configuration not stated), the “EEF2K protein level normalised to actin” value is inactive: 3.84.

`CO[C@H]1C[C@@H]2CC[C@@H](C)[C@@](O)(O2)C(=O)C(=O)N2CCCC[C@H]2C(=O)O[C@H]([C@H](C)C[C@@H]2CC[C@@H](OC(=O)C(C)(CO)CO)[C@H](OC)C2)CC(=O)[C@H](C)/C=C(\C)[C@@H](O)[C@@H](OC)C(=O)[C@H](C)C[C@H](C)/C=C/C=C/C=C/1C`: the “EEF2K protein level normalised to actin” value was inactive: 1.49.

As to `CC(=O)O[C@]1(C(C)=O)CC[C@H]2[C@@H]3C=C(C)C4=CC(=O)CC[C@]4(C)[C@H]3CC[C@@]21C` [Megestrol Acetate], the “EEF2K protein level normalised to actin” value was inactive: 1.12.

`CC[C@H](Nc1ncnc2[nH]cnc12)c1nc2cccc(F)c2c(=O)n1-c1ccccc1` [Idelalisib (CAL-101, GS-1101)]: the “EEF2K protein level normalised to actin” value was inactive: 2.28.

For the compound `C=CC(=O)Nc1cccc(Oc2nc(Nc3ccc(N4CCN(C)CC4)cc3)nc3ccsc23)c1`, the “EEF2K protein level normalised to actin” value was inactive: 2.98.

Take `CC(C)C(=O)Nc1ccc([N+](=O)[O-])c(C(F)(F)F)c1` [Flutamide]: the “EEF2K protein level normalised to actin” value is inactive: 0.58.

In the case of `COc1cccc2c1C(=O)c1c(O)c3c(c(O)c1C2=O)C[C@@](O)(C(C)=O)C[C@@H]3O[C@H]1C[C@H](N)[C@H](O)[C@H](C)O1` [Daunorubicin HCl], the “EEF2K protein level normalised to actin” value is active: 0.11.

For the compound `Nc1cc(C(Cl)=C(Cl)Cl)c(S(N)(=O)=O)cc1S(N)(=O)=O` [Clorsulon], the “EEF2K protein level normalised to actin” value is inactive: 2.22.

`Cc1c(-c2ccc(O)cc2)n(Cc2ccc(OCCN3CCCCCC3)cc2)c2ccc(O)cc12` [Bazedoxifene HCl]: the “EEF2K protein level normalised to actin” value is inactive: 3.83.

Turning to `Cc1cn(-c2cc(NC(=O)c3ccc(C)c(Nc4nccc(-c5cccnc5)n4)c3)cc(C(F)(F)F)c2)cn1` [Nilotinib (AMN-107)], the “EEF2K protein level normalised to actin” value is inactive: 1.06.
